# Laboratory results as given in patent publication US20120190868A1, “SUBSTITUTED BENZOCHALCOGENOACENE COMPOUND, THIN FILM COMPRISING THE COMPOUND, AND ORGANIC SEMICONDUCTOR DEVICE INCLUDING THE THIN FILM” (NATIONAL UNIVERSITY CORPORATION NAGOYA UNIVERSITY, priority 2009, published 2012).
# Experiments:
# [1] = Electric performances of organic transistor having thin film formed by vacuum deposition method; conditions: for saturated field-effect mobility of the carrier (carrier mobility): thin film by vacuum deposition per Example 3 (FIG. 1 device), measured in vacuum, compound [5]: substrate temperature 60° C.; for on/off ratio (ratio of drain currents at gate voltages of 0 V and −50 V): drain voltage Vd −50 V
# [2] = Electric performances of organic transistor having thin film formed by applying and film-forming process (spin coat)
# [3] = vacuum deposition, substrate temperature 80° C. (Example 8), Vd −40V, Vg 20 to −40V
# [4] = thin film by vacuum deposition per Example 3
Compound,"field-effect mobility (carrier mobility) [1, 3] [cm^2/Vs]","on/off ratio [1, 3]","field-effect mobility (carrier mobility) ([2]; spin coating of 0.5 wt % dichlorobenzene solution heated at 100° C., dried at 120° C. for 30 minutes, Vd −40V, Vg 20 to −40V) [cm^2/Vs]","on/off ratio ([2]; spin coating of 0.5 wt % dichlorobenzene solution heated at 100° C., Vd −40V, Vg 20 to −40V)",saturated field-effect mobility of the carrier (carrier mobility) [1],"on/off ratio (ratio of drain currents at gate voltages of 0 V and −50 V) [1, 4]","transistor type ([1]; thin film by vacuum deposition per Example 3, minus drain current increased with applied minus gate voltage)","field-effect mobility of the carrier (carrier mobility) ([2]; thin film spin-coated from 0.5 wt % tetrahydrofuran solution, kept at 80° C. for 30 minutes, FIG. 2 device (Example 6)) [cm^2/Vs]","on/off ratio ([2]; thin film spin-coated from 0.5 wt % tetrahydrofuran solution, FIG. 2 device (Example 6))"
CCCCCCCCCCCCc1ccc2c(c1)sc1c2sc2c3ccc(CCCCCCCCCCCC)cc3sc21 [[14]],0.4,10^7,0.5,10^7,–,–,–,–,–
CCCCCCc1ccc2c(c1)sc1c2sc2c3ccc(CCCCCC)cc3sc21 [[5]],–,–,–,–,1.6 cm^2/Vs,10^7,p-type organic transistor,0.3,10^7
"COc1ccc2sc3c(sc4c5cc(OC)ccc5sc43)c2c1 [Compound C-1, reference compound]",–,–,–,–,10^−5 cm^2/Vs,10^3,–,–,–
